# Measurements taken from US5476933A, “Azepine synthesis via a diels-alder reaction” (priority 1994, dated 1995).
# Some of these results come from one statement about several compounds together.
# Target: T1, glycine binding site of the NMDA receptor (Rattus norvegicus, UniProt P35439)
# T1 construct: rat brain membrane homogenates which are enriched in NMDA receptors; tissue Pel-Freez, Rogers, Ark; host or cells: whole rat brain, washed membrane homogenate
# Experiment: 1 μM glycine-stimulated [3H]-MK-801 binding, rat brain membrane homogenates
# Conditions: structure-activity statements
# Experimental: ^a Experiments described herein utilizing rat brain homogenates and a
# The assay is conducted using rat brain membrane homogenates which are enriched in NMDA receptors. The membranes are prepared as follows. Frozen rat brains (obtained from Pel-Freez, Rogers, Ark.) are homogenized in 15 volumes (w/v) of ice cold 0.32M sucrose. The homogenate is spun at 1,000×g for ten minutes. The supernatant is collected and spun for 20 minutes at 44,000×g. The pellet is suspended in 15 volumes of water (relative to original brain weight). The homogenate is again spun at 44,000×g for twenty minutes. The pellet is resuspended in 5 volumes of water and the suspension is freeze-thawed 2 times. After the final thaw cycle, the suspension is brought to 15 volumes with water and spun at 44,000×g for twenty minutes. The pellet is resuspended in 5 volumes of ice-cold 10 mM HEPES, and is titrated to pH 7.4 with KOH containing 0.04% Triton X-100. Membranes are incubated with the Triton/HEPES buffer at 37° C. for 15 minutes. The volume is then brought to 15 with ice-cold 10 mM HEPES, pH 7.4, and spun/washed three times with spins of 44,000×g between washes. The final pellet is suspended in three volumes of 50 mM HEPES, pH 7.4 and the protein concentration is determined with a standard dye-binding protein assay (Bio-Rad, Richmond, Calif.). The suspension is stored at -80° C. until used. Only HPLC grade water is used for all buffers and suspensions/washings. The extensive washings are necessary to remove as much endogenous glycine from the membrane preparation as possible.
# Nonspecific binding is defined as the […] presence of PCP (final concentration: 100 μM). […] A 500 nM concentration (final) of 5,7-dichlorokynurenic (DCK) acid is added to all assay tubes. This concentration of the glycine antagonist DCK "buffers" most of the residual endogenous glycine that is not removed by the extensive washing steps that are carried out during the membrane preparation procedure.
# The assays are incubated for 120 minutes at room temperature after which time the membrane-bound radioactivity is isolated from the free radioactivity by vacuum filtration through Whatman glass fiber filters that had been pretreated with 0.3% polyethyleneimine. Filtration is accomplished using a Brandel 48 well cell harvester. Filtered membranes are washed three times with 3 mL each of ice cold buffer. Filters are transferred to scintillation vials and 5 mL of scintillation cocktail is added. The vials are shaken overnight and the radioactivity is counted by liquid scintillation spectroscopy. The assays are done in triplicate and all experiments are conducted at least three times.
# Inhibition dose response curves are constructed using increasing concentrations of glycine antagonists from 5 nM to 330 μM.
# After constructing inhibition dose response curves and determination of glycine reversibility, Ki values for the glycine antagonists are calculated using the Cheng and Prusoff equation employing the experimentally determined IC50 values, the known concentration of glycine in the assay (1 μM) and the known affinity of glycine for the glycine binding site of the NMDA receptor (100 nM).
# Binding Assays and In Vivo Studies.
row,Structure (SMILES),"activity (glycine receptor antagonism), in words"
1,[N-]=[N+]=Nc1ccc2[nH]c(=O)c(O)cc(=O)c2c1 [Compound 14],greatly reduced to no activity
2,O=c1[nH]c2ccc([N+](=O)[O-])cc2c(=O)cc1O [Compound 11],greatly reduced to no activity
3,"Cc1cccc2c(=O)cc(O)c(=O)[nH]c12 [Compound 43, 3-Hydroxy-9-methyl-1H-1-benzazepine-2,5-dione]",loss of activity
4,CC(=O)Nc1ccc2[nH]c(=O)c(O)cc(=O)c2c1 [Compound 12],greatly reduced to no activity
5,"Cc1ccc(C)c2c(=O)cc(O)c(=O)[nH]c12 [Compound 45, 3-Hydroxy-6,9-dimethyl-1H-1-benzazepine-2,5-dione]",loss of activity
6,O=c1[nH]c2ccc(Br)cc2c(=O)cc1O [Compound 15],greatly reduced to no activity
7,O=C(Nc1ccc2[nH]c(=O)c(O)cc(=O)c2c1)C(F)(F)F [Compound 13],greatly reduced to no activity
8,"Cc1cc(C)c2[nH]c(=O)c(O)cc(=O)c2c1 [Compound 44, 3-Hydroxy-7,9-dimethyl-1H-1-benzazepine-2,5-dione]",loss of activity
